# Literature values, collected in US9675065B2 (priority 2011, dated 2017).
# Some results were stated once for a whole list of compounds, not compound by compound. For at least one compound, name, drawing or mass did not settle the structure.
# System: C. Sporogenes and B. Subtilis spores
# Conditions: 1000 ppm as ClO2, AOAC method 966.04; cited from earlier work
row,Structure (SMILES),contact time to meet the requirements for being sporicidal [h]
1,[O][Cl+][O-] [chlorine dioxide],≥ 1
2,CC(=O)OO [peracetic acid],≥ 1
